# According to PMC7275063:
# The chains behind the UniProt entries cited, without tags or fusion partners.
# UniProt Q6PHN9: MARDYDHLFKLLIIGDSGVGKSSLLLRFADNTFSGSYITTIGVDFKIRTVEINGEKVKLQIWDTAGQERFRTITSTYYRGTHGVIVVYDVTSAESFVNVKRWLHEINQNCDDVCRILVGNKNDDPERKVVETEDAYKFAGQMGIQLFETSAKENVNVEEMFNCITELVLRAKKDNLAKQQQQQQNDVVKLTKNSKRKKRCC
# UniProt O95248: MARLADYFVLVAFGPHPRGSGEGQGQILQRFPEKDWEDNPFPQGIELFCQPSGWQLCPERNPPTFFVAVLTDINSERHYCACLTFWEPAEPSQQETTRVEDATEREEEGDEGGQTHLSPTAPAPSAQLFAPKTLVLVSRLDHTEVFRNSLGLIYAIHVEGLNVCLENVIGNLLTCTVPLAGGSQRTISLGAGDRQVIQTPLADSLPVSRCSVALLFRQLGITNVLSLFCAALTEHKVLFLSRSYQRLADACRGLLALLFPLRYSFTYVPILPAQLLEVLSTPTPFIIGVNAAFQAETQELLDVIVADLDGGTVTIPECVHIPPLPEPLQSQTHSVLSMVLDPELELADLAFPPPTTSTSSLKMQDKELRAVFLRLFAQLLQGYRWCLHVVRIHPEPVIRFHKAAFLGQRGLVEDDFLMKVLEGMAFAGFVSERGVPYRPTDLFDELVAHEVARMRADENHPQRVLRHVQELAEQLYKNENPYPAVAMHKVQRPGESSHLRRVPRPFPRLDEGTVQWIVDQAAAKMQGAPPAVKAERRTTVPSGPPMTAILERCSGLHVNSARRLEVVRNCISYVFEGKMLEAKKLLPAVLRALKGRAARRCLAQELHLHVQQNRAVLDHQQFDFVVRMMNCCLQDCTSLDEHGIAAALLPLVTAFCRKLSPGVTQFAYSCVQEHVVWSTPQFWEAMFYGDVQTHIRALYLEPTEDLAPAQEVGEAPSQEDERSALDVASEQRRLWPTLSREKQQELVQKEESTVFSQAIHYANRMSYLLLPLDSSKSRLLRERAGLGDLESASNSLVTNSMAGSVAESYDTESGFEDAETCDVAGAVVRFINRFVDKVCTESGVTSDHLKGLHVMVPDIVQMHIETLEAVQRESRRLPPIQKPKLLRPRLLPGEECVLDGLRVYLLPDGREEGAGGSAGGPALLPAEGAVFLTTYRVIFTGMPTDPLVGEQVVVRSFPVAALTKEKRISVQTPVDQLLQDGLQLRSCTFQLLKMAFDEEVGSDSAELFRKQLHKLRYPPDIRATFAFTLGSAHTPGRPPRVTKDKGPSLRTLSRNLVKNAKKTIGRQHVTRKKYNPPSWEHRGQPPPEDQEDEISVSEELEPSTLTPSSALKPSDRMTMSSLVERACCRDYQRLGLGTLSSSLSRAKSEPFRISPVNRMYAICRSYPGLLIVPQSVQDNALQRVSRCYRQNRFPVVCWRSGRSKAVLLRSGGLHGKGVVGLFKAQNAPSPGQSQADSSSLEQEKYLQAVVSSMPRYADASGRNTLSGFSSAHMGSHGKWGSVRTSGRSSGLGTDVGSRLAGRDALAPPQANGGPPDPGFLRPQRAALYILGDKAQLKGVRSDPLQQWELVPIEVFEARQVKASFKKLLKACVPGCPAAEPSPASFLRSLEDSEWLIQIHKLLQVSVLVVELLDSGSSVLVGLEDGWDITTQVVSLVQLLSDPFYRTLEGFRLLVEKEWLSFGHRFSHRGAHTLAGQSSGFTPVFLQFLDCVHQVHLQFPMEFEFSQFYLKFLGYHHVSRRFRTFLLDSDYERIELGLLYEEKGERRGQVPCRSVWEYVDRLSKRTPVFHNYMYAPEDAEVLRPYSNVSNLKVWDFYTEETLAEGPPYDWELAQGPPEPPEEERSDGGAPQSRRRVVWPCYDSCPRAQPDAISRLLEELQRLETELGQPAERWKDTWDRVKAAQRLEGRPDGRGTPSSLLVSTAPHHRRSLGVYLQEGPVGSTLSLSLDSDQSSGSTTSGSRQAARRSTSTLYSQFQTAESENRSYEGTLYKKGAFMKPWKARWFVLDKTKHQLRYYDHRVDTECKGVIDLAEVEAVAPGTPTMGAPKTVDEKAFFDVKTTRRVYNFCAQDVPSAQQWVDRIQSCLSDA
# UniProt Q86WG5: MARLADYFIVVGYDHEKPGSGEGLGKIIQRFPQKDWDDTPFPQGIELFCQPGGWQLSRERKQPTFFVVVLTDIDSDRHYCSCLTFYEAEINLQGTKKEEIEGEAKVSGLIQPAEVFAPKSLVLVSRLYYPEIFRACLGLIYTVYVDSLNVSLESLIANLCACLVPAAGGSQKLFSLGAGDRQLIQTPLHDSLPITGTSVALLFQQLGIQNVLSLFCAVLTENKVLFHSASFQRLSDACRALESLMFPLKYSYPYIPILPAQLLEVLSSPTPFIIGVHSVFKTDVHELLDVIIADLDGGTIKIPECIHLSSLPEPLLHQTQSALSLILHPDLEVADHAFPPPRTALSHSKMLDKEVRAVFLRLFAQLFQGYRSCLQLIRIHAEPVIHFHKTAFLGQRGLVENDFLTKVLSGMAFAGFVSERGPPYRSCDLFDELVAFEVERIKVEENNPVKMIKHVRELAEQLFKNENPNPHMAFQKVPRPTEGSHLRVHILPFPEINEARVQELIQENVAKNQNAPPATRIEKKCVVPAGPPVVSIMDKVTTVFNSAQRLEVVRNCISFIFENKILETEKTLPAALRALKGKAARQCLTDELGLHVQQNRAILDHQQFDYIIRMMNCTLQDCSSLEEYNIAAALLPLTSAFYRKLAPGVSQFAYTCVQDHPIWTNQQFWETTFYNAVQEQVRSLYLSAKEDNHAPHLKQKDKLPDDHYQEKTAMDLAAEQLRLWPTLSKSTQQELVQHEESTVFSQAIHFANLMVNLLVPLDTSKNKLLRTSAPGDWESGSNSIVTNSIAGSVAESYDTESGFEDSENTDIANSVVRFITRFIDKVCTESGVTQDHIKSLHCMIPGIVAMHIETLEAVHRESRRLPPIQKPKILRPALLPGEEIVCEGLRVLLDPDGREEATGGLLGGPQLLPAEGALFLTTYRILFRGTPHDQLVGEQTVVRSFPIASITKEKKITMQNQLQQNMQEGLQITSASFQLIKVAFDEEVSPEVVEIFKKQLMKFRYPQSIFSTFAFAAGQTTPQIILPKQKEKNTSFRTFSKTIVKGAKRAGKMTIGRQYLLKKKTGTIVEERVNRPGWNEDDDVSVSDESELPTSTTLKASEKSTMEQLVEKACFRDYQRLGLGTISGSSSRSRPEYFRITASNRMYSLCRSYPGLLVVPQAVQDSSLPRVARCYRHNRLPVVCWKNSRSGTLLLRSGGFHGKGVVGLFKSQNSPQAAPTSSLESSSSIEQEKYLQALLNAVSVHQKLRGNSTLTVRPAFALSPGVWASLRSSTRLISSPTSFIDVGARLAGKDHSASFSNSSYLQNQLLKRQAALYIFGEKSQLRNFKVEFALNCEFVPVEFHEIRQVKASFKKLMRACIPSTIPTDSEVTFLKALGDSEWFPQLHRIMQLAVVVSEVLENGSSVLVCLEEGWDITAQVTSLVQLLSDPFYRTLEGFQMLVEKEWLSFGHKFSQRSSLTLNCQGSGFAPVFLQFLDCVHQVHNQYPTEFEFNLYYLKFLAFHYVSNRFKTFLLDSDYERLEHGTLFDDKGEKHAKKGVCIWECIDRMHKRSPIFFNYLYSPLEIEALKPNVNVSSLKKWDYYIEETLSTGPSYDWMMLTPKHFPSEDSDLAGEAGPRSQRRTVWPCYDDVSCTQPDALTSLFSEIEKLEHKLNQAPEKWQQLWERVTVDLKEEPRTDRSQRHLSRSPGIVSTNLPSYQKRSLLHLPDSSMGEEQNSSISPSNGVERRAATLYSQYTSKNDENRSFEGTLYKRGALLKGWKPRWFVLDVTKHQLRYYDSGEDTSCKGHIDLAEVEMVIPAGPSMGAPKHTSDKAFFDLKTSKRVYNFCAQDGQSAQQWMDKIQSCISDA
# No constants are given. Whether binding was seen depends on the method and setting. Binding seen in cells or lysates may run through a third protein. Here binding means that the protein was enriched with, or labelled near, the bait; the list need not be complete.
# Target: myc-tagged BirA* biotin ligase fused N-terminally to Rab35 (mouse) (UniProt Q6PHN9)
# Experiment: proximity labelling; BioID: myc-BirA*-Rab35 or BirA* alone in HEK293T cells fed 50 µM biotin for 24 h; biotinylated proteins purified on streptavidin agarose and identified by label-free quantitative mass spectrometry
row,Substance,binding
1,"MTMR5 (SBF1), endogenous (from UniProt O95248 1-1868)",binds
2,"MTMR13 (myotubularin-related protein 13, SET binding factor 2), endogenous (from UniProt Q86WG5 1-1849)",binds
